{"source": "PubChem BioAssay AID1347076", "about": "(National Center for Advancing Translational Sciences (NCATS), 2019)", "note": "About 13,000 (3.2%) of roughly 400,000 compounds were called active. The shares of active, inactive and inconclusive entries below differ from those in the screen. Calls come from the whole dose curve; as a rule, active = well fitted cell-killing curve with a large enough effect; inconclusive = small, poorly fitted or top-dose-only effect, or effect the other way; inactive = flat fitted curve, though single readings scatter. Potencies of inconclusive entries are doubtful fits and often do not repeat."}
{"experiment": "qHTS assay for MDR1-selective chemotherapeutics: Primary screen using the drug-selected MDR subline cells KB-V1; note: nearly all actives have a fitted effect of over 60% in size; note: potency is the fitted concentration of half-maximal effect", "conditions": "KB-V1 MDR cells viability, CellTiter-Glo, 72 h; series mostly up to 46.1 µM", "procedure,_shortened": "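KB-V1, DMEM (no phenol red) + 10% FBS; cpd pin-transferred, titration series; 72 h, 37 degrees C; CellTiter-Glo, luminescence. Data normalized, curve-fit.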"}
{"compound": "COc1cc(C2=NOC(C(=O)NCc3ccccn3)C2)cc(OC)c1OC", "note": "(stereo not drawn)", "Potency": "inactive"}
{"compound": "COc1cccc(N/C(SCc2cccc([N+](=O)[O-])c2)=C(/C#N)C(N)=O)c1", "Potency": "inconclusive: 29.1 µM [cytotoxic, single point]"}
{"compound": "Cc1cc(C(Br)(Br)Br)nc2ccccc12", "Potency": "inactive"}
{"compound": "COc1ccc(-c2nc3c(c(=O)[nH]c(=O)n3Cc3ccccc3)n2Cc2ccccc2)cc1", "Potency": "active: 3.66 µM"}
{"compound": "CCCSc1nnc(NC(=O)c2cc(=O)c3ccccc3o2)s1", "Potency": "inconclusive: 29.1 µM [rising, single point]"}
{"compound": "CC(=O)OC1CCC2(C)C3CCC4(C)C(C(C)=O)CCC4C3CC3OC32C1", "note": "(stereo not drawn)", "Potency": "inconclusive: 23.1 µM [cytotoxic, single point]"}
{"compound": "O=C1CCN(Cc2ccccc2)S(=O)(=O)c2c(F)cc(F)cc21", "Potency": "inconclusive: 29.1 µM [cytotoxic, single point]"}
{"compound": "O=[N+]([O-])c1ccc(/C=C/C2=NN(c3ccccc3)C(c3ccco3)C2)o1", "note": "(stereo not drawn)", "Potency": "inconclusive: 16.4 µM [cytotoxic, partial curve, poor fit]"}
{"compound": "NC(=O)c1c(NC(=O)CS(=O)(=O)c2ccc(Cl)cc2)sc2c1CCCC2", "Potency": "inconclusive: 32.6 µM [cytotoxic, single point]"}
{"compound": "CCOC(=O)c1c(S(=O)(=O)Nc2ccc(F)cc2C)c(C)n(C)c1C", "Potency": "inconclusive: 0.206 µM [cytotoxic, full curve]"}
{"compound": "CCCCN(CCCC)C(=O)c1nsnc1-c1ccccc1O", "Potency": "inconclusive: 23.1 µM [cytotoxic, partial curve, poor fit]"}
{"compound": "C=CCN1CCc2c(cc(O)c(O)c2Cl)C(c2ccccc2)C1", "note": "(stereo not drawn)", "Potency": "inconclusive: 16.4 µM [cytotoxic, single point]"}
{"compound": "N#Cc1cccc(NC(=O)c2nc(-c3ccccc3)n(-c3ccccc3)n2)c1", "Potency": "inconclusive: 29.1 µM [cytotoxic, single point]"}
{"compound": "CCCN(Cc1cc2cccc(C)c2[nH]c1=O)S(C)(=O)=O", "Potency": "inactive"}
{"compound": "CC1(C)CC(=O)c2cc(OCC(=O)N3CCN(c4ccccc4F)CC3)ccc2O1", "Potency": "inconclusive: 23.1 µM [cytotoxic, single point]"}
{"compound": "Cc1ccc(S(=O)(=O)NCc2ccncc2)cc1", "Potency": "inactive"}
{"compound": "NC(N)=NS(=O)(=O)c1ccc(NC(=S)NC(=O)c2ccc3c(c2)OCO3)cc1", "Potency": "inactive"}
{"compound": "CC(=O)c1c(O)cc(C(C)C)n(-c2ccccc2)c1=O", "Potency": "inconclusive: 29.1 µM [cytotoxic, partial curve, poor fit]"}
{"compound": "C=CCc1ccc(OCCOCCOc2cccc3ccc(C)nc23)c(OC)c1", "Potency": "inconclusive: 10 µM [cytotoxic, partial curve, poor fit]"}
{"compound": "CC12CCC(C/C1=N\\N=C1\\NC(=O)/C(=C\\c3cccc(Br)c3)S1)C2(C)C", "note": "(stereo not drawn)", "Potency": "inconclusive: 29.1 µM [cytotoxic, single point]"}
{"compound": "COc1ccccc1N(C)S(=O)(=O)c1ccc(C(=O)OCC(=O)NCc2cccs2)cc1", "Potency": "inactive"}
{"compound": "Cc1cc(/C=C/c2ccccc2)nc2ccccc12", "Potency": "inconclusive: 18.4 µM [cytotoxic, single point]"}
{"compound": "O=C(CCc1nc2ccccc2c(=O)[nH]1)NCc1ccco1", "Potency": "inconclusive: 32.6 µM [cytotoxic, single point]"}
{"compound": "O=C(c1ccc(Br)o1)N1N=C(c2ccc(Cl)cc2)CC1c1ccco1", "note": "(stereo not drawn)", "Potency": "inconclusive: 16.4 µM [cytotoxic, single point]"}
{"compound": "CCOC(=O)C1C(=O)C=C(c2cccs2)CC1c1ccccc1", "note": "(stereo not drawn)", "Potency": "inconclusive: 20.6 µM [cytotoxic, single point]"}
{"compound": "COCC(C)NC(=O)COc1ccc(Cl)cc1Cl", "note": "(stereo not drawn)", "Potency": "inconclusive: 7.31 µM [cytotoxic, partial curve, poor fit]"}
{"compound": "O=C(C1CCCCN1S(=O)(=O)c1ccccc1)N1CCCCC1", "note": "(stereo not drawn)", "Potency": "inconclusive: 16.4 µM [cytotoxic, partial curve]"}
{"compound": "CC(=O)Oc1ccc(C(=O)Nc2ccc(C3(C#N)CCCC3)cc2)cc1", "Potency": "inconclusive: 14.6 µM [cytotoxic, partial curve]"}
{"compound": "COC(=O)[C@@]1(Cc2ccc(OC)cc2)[C@H]2c3cc(C(=O)N4CCCC4)n(CCc4ccc(OC)c(Br)c4)c3C[C@H]2CN1C(=O)c1ccccc1", "Potency": "active: 18.4 µM"}
{"compound": "Cc1cc(C)nc(Nc2n[nH]c(COc3ccc(Cl)cc3)n2)n1", "Potency": "inconclusive: 18.4 µM [cytotoxic, single point]"}
{"compound": "COc1ccc(C2CC(=O)c3cnc(NC(=O)c4ccccc4)nc3C2)c(OC)c1", "note": "(stereo not drawn)", "Potency": "inconclusive: 20.6 µM [cytotoxic, single point]"}
{"compound": "Cc1ccc(S(=O)(=O)CCC(=O)c2ccc(F)cc2)cc1", "Potency": "inactive"}
{"compound": "C=C(C)C1CC=C(C)/C(=N/NC(=O)c2ccccc2[N+](=O)[O-])C1", "note": "(stereo not drawn)", "Potency": "inconclusive: 23.1 µM [cytotoxic, single point]"}
{"compound": "NC(c1csc(Nc2ccc(C(=O)c3ccccc3)cc2)n1)c1ccccc1Cl", "note": "(stereo not drawn)", "Potency": "active: 20.6 µM"}
{"compound": "O=C(CN1CCc2ccccc21)NCc1ccccc1Cl", "Potency": "inconclusive: 20.6 µM [cytotoxic, single point]"}
{"compound": "O=C(C[n+]1ccccc1Br)c1ccc2c(c1)CCCC2", "Potency": "inactive"}
{"compound": "Oc1ccc(C(=Nc2ccccc2)c2ccccc2)c(O)c1", "Potency": "inconclusive: 23.1 µM [rising, partial curve, poor fit]"}
{"compound": "Cc1ccc(C(=O)COC(=O)COc2ccccc2O)cc1C", "Potency": "inconclusive: 14.6 µM [rising, partial curve, poor fit]"}
{"compound": "CC(C)c1cc(CN2C(C)COCC2C)cc(C(C)C)c1O", "note": "(stereo not drawn)", "Potency": "active: 16.4 µM"}
{"compound": "C=CC[C@@H](Cc1ccc(F)cc1)C(=O)OC[C@@H]1CCCN1C(=O)[C@@H](CC=C)CC(=O)N[C@H](CO)Cc1ccccc1", "Potency": "inconclusive: 29.1 µM [cytotoxic, single point]"}
{"compound": "CC1CCC2(CC1)NC(=O)N(NC(=O)CCc1c[nH]c3ccccc13)C2=O", "note": "(stereo not drawn)", "Potency": "inactive"}
{"compound": "COc1ccc(-c2sc(C(=O)c3ccc(Cl)cc3Cl)cc2CC(=O)O)cc1", "Potency": "inconclusive: 16.4 µM [cytotoxic, single point]"}
{"compound": "COc1cc(OC)cc(C(=O)Nc2cccc(C(C)=O)c2)c1", "Potency": "inactive"}
